Read-outs that look alike come from different tables or passages of the source.
Test system: patients with atrial fibrillation at risk of stroke
Source text: Median follow-up was 2.0 years and the primary outcome was stroke or systemic embolism.
Patients were recruited from 951 clinical centers in 44 countries. In brief, patients were eligible if they had atrial fibrillation documented on electrocardiogram at screening or within 6 months; and at least one of the following: prior stroke or transient ischemic attack; left ventricular ejection fraction less than 40%; New York Heart Association heart failure symptoms of Class 2 or greater within 6 months; age at least 75 years; or age at least 65 years with diabetes mellitus, hypertension or coronary artery disease.
The time in therapeutic range was calculated by the method of Rosendaal (Rosendaal F R, et al., A method to determine the optimal intensity of oral anticoagulant therapy, Thromb Haemost, 1993, 69:236-239), excluding INRs from the first week and after discontinuations. […] Concomitant use of aspirin (less than 100 mg/day) or other antiplatelet agents was allowed.
Liver function testing was performed monthly during the first year of follow-up.
The primary study outcome was stroke or systemic embolism. The primary safety outcome was major hemorrhage. Secondary outcomes were stroke, systemic embolism and death. Other outcomes were myocardial infarction, pulmonary embolism, transient ischemic attacks, and hospitalizations. The primary net benefit-risk outcome was the composite of stroke, systemic embolism, pulmonary embolism, myocardial infarction, death or major hemorrhage. Stroke was defined as sudden onset of focal neurological deficit consistent with the territory of a major cerebral artery and categorized as ischemic, hemorrhagic or unspecified. Hemorrhagic transformation of ischemic stroke was not considered as hemorrhagic stroke. Intracranial hemorrhage included hemorrhagic stroke and sub-dural or sub-arachnoid hemorrhage. Systemic embolism was an acute vascular occlusion of an extremity or organ documented by imaging, surgery or autopsy. […]

| SMILES | Mean time in therapeutic range (INR 2.0 to 3.0) (patients on warfarin) [%] | Rate of discontinuation at 2.5 years (dabigatran 110 mg) [%] | Rate of discontinuation at 2.5 years (dabigatran 150 mg) [%] |
| --- | --- | --- | --- |
| CC(=O)CC(c1ccccc1)c1c(O)c2ccccc2oc1=O (racemic) [Warfarin, 3-(α-acetonylbenzyl)-4-hydroxycoumarin] | 64 |  |  |
| Cn1c(CNc2ccc(C(=N)N)cc2)nc2cc(C(=O)N(CCC(=O)O)c3ccccn3)ccc21 [Dabigatran] |  | 23 | 25 |

From patent US20120277269A1 (priority 2008, published 2012)
